Data source: PubChem BioAssay AID1159590 (NIAID, 2016)
Aim: 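Effect of gene knock-down on p65 moving into nuclei after TLR2 stimulation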. Cells: mouse RAW264.7 macrophage reporter cells expressing GFP-p65 and a Tnf promoter-mCherry. Reagents: single siRNA against mouse genes. Timing: 48 to 72 hours after siRNA transfection, then 40 minutes of ligand. Treatment: Pam3CSK4 (TLR2/1 agonist) for 40 minutes before fixation; dose not given. Measured: 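GFP-p65 nuclear to cytoplasmic intensity ratio from imaging, normalised per plate by median and MAD, given as robust z against negative controls, mean of replicates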. Scale: p65 nuclear entry z-score: higher = more p65 moved into nuclei than in negative-control wells. Hit rule: In these data the active calls have p65 nuclear entry z-score, replicate mean at about -1.5 or lower, or at about 1.5 or higher. Calls: active = strong change, up or down; inactive = little change.
The whole screen tested 756 reagents; shown is a part drawn at random. Of all reagents, 128 (17%) are marked active. 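Calls are two-sided: both reduced and increased p65 nuclear entry count as active.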 A number with no mark means an inactive call. The numbers tell different reagents against one gene apart. Not stated in the record: the amount of reagent.

gene symbol	siRNA no.	p65 nuclear entry z-score, replicate mean
Cxcl11	1	-0.0367
Cxcl11	2	0.917
Cxcl11	3	1.02
Cxcl11	4	-0.729
Cxcl11	5	-0.192
Cxcl11	6	-0.454
Tlr3	1	0.19
Tlr3	2	1.3
Tlr3	3	0.421
Tlr3	4	-0.37
Tlr3	5	-0.927
Tlr3	6	-1.11
Sigirr	1	-1.67 (active)
Sigirr	2	-2.15 (active)
Sigirr	3	-0.691
Sigirr	4	-0.244
Sigirr	5	-0.839
Sigirr	6	-0.514
Mapk3	1	-1.34
Mapk3	2	1.12
Mapk3	3	-0.11
Mapk3	4	-0.962
Mapk3	5	-1.13
Mapk3	6	-0.936
Mapk13	1	-0.749
Mapk13	2	-1.73 (active)
Mapk13	3	-0.721
Mapk13	4	-0.917
Mapk13	5	1.27
Mapk13	6	0.835

Continued; the last 5 above are carried over.
gene symbol	siRNA no.	p65 nuclear entry z-score, replicate mean
Mapk13	2	-1.73 (active)
Mapk13	3	-0.721
Mapk13	4	-0.917
Mapk13	5	1.27
Mapk13	6	0.835
Tab2	1	-0.638
Tab2	2	-0.368
Tab2	3	-0.0452
Tab2	4	-0.989
Tab2	5	0.375
Tab2	6	-0.833
Ikbkb	1	-0.188
Ikbkb	2	-1.23
Ikbkb	3	-2.03 (active)
Ikbkb	4	-1.26
Ikbkb	5	-0.981
Ikbkb	6	0.0603
Il1rl1	1	-1.06
Il1rl1	2	-0.655
Il1rl1	3	-0.886
Il1rl1	4	-0.327
Il1rl1	5	-0.421
Il1rl1	6	-0.627
